Laboratory results taken from the supplement of paper PMC10338343.
± gives the standard deviation. The list shows a part of the results, in another mix than the full data. The uncertainty is large for many entries.

tested on: MILI (PIWIL2) piRISC loaded with piRNA #2 (26 nt); test: pre-steady-state target cleavage rate (min^-1); MIWI and MILI are mouse PIWI proteins and EfPiwi is from a freshwater sponge; tags in brackets are library labels; higher = faster piRNA-guided slicing of the target; conditions: guide: piRNA #2 5'p-UUAGGUAACCCAGUAGAUCCAGAGGA; auxiliary factor: 500 nM mouse GTSF1
Procedure, shortened: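 Sequencing of uncleaved targets, normalised to depth and to weakly complementary targets, was the readout of this Cleave-'n-Seq assay. A transcribed, DNA-blocked target RNA library (0.1 nM) was mixed with 1 nM active affinity-purified piRISC carrying one synthetic guide, with or without 500 nM GTSF1 partner protein, in HEPES–potassium acetate buffer at 33 °C for 0–8 or 0–960 min. Three trials were pooled, k3 was capped at 0.0001 min^-1, and a burst-and-steady-state fit gave the pre-steady-state cleavage rate.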

| Sequence | pre-steady-state target cleavage rate |
| --- | --- |
| CUUAAGGAGACGAUCUAGUGGGUUAGCUAA | 0.000448 ± 0.012 |
| CUUAUCCUCUGGAUGUACUGCGUUACCUAA | 0.0106 ± 0.0045 |
| CUUAAGGAGACGAUCAUCUGGGUUACCUAA | 0.00126 ± 0.0066 |
| CUUAAGGACUGGAUCUUGAGGGUUACCUAA | 0.000382 ± 0.014 |
| CUUAAGGAGAGGAUCUAUCUGGGUUACCUAA | 0.000133 ± 0.029 |
| CUUAAGGAGACCUAGUACUUGGUUACCUAA | < 0.0001 |
| CUUAAGCUCUGGAUCCACUGGGUUACCUAA | 0.0284 ± 0.0092 |
| CUUAAGGAGACCAUACUACUGGGUUACCUAA | 0.000532 ± 0.02 |
| CUUAAGGAGUGGAUCUACAGGGUUAGCUAA | 0.000491 ± 0.028 |
| CUUAAGGAGACCUAGAACUGGGUCUACCUAA | 0.000172 ± 0.034 |
| CUUAAGGUCUGGAUCUACUGCCAUACCUAA | 0.000497 ± 0.014 |
| CUUAAGGAGACCUAGAUCUCGGGUUACCUAA | 0.000603 ± 0.014 |
| CUUAAGGAGACCUAGAUGACGGUUACCAAA | 0.000121 ± 0.018 |
| CUUAUCCUCUGGUUCUACUGGGAUACCUAA | 0.188 ± 0.078 |
| CUUAAGGAGACCUAGAUGAGGGUAACCUUA | 0.000462 ± 0.019 |
| CUUAUCCUCUGGAUCUACUGGGCUUACCUAA | 0.0139 ± 0.005 |
| CUUAAGGAGACCUAGAUGUGAGGUUACCUAA | 0.000324 ± 0.019 |
| CUUAAGGAGACCAUCUACUGGGUUACCUA | 0.00163 ± 0.0061 |
| CUUAAGGAGACCUAGAUCUGGGUUACCUAAA | 0.000372 ± 0.019 |
| CUUAAGGAGACCAACAACUGGGUUACCUAA | 0.000709 ± 0.01 |

| Sequence | pre-steady-state target cleavage rate |
| --- | --- |
| CUUAAGGACUGGAUCUACUGGGUUACCAUA | 0.00402 ± 0.0085 |
| CUUAAGGAGAGGAUCAACUGCGUUACCUAA | 0.00124 ± 0.0086 |
| CUUAAGGAGUGGAUCUUCUGGGUAACCUAA | 0.0035 ± 0.0057 |
| CUUAAGGACUGGAUCUACUGGGUUACUCUAA | 0.00679 ± 0.0086 |
| CUUAAGGAGACCAUGCUACUGGGUUACCUAA | 0.000862 ± 0.011 |
| CUUAAGGAGACUAUCUACUGGGUUACCUAA | 0.00184 ± 0.0053 |
| CUUAAGGAGACCUUCUACUGGGUAUACCUAA | 0.00085 ± 0.013 |
| CUUAAGGAGAGGUUCUACUGCGUUACCUAA | 0.00134 ± 0.0058 |
| CUUAAGGACUGGAUCUACUGGGUUACCUGA | 0.00746 ± 0.008 |
| CUUAAGGUCUGGAUCUACUGGCUUACCUAA | 0.00125 ± 0.0091 |
| CUUAAGGAGACCUAGUACUAGGGUUACCUAA | 0.000143 ± 0.04 |
| CUUAAGGUCUGGAUCUACUGCGUUAGCUAA | 0.00058 ± 0.018 |
| CUUAAGGAGAGGAGUCUACUGGGUUACCUAA | 0.00217 ± 0.0047 |
| CUUAAGGAGACCUAGAUGUGGGUUACCAUA | 0.000121 ± 0.043 |
| CUUAAGGAGUGGAUCUUCUGGGUUACGUAA | 0.000577 ± 0.016 |
| CUUAAGGACUGGAUCUACUGCGUUACGUAA | 0.000304 ± 0.035 |
| CUUAAGGAGUGGAUGUACUGGGUUACCAAA | 0.00385 ± 0.009 |
| CUUAAGGAGAGGAUCUACUAGGGUUACCUAA | 0.00118 ± 0.0051 |
| CUUAAGGAGACCAUCUACUGGGUAACCUUA | 0.000199 ± 0.048 |
| CUUAAGGACAGGAUCUACUGCGUUACCUAA | 0.00189 ± 0.013 |

Quoted from the results shown for reference:

| Sequence | pre-steady-state target cleavage rate |
| --- | --- |
| CUUAAGGAGACCUAGUACUUGGUUACCUAA | < 0.0001 |
| CUUAAGCUCUGGAUCCACUGGGUUACCUAA | 0.0284 ± 0.0092 |
| CUUAAGGAGACCAUACUACUGGGUUACCUAA | 0.000532 ± 0.02 |
